# Source: the supplement of paper PMC3334620
# Over roughly 33,000 sequences, “E-score (-0.5 to 0.5)” has its median near -0.0014; the highest 2% begin near 0.25. Some of the results follow.
# Biological target: T1, Cad1 (UniProt P24813)
# T1 sequence: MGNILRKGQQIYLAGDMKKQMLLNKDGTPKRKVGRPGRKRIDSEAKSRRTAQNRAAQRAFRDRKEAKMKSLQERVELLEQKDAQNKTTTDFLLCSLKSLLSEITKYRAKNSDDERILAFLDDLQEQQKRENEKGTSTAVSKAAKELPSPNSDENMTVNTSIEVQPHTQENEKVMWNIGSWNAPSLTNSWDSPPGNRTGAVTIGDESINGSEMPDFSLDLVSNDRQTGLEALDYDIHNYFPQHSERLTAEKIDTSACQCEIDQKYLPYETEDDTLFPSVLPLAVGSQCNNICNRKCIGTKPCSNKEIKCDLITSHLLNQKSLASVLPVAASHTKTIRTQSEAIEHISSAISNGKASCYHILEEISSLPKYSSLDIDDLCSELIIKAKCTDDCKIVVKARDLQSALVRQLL
# Test: PBM E-score (8-mer binding enrichment) (E-score (-0.5 to 0.5)); higher = stronger / more preferred TF binding
# Conditions: protein concentration: 100 nM; construct: GST-full length
# Procedure, shortened: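 GST-tagged yeast TFs (full-length or DNA-binding domain) were made by PURExpress in vitro transcription/translation and applied at about 100-200 nM to universal all-10-mer Agilent arrays. The arrays were made double-stranded by primer extension, on fresh or once-stripped slides. Bound protein was detected with fluorescent anti-GST, and scans were normalised with masliner. Each ungapped eight-base word, pooled with its reverse complement, received an E-score (modified Wilcoxon-Mann-Whitney statistic) from the Universal PBM Analysis Suite.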
row,Sequence,PBM E-score
1,ACTCGGAC,0.138
2,AGAAGCGG,-0.185
3,CCGTGGGC,-0.0576
4,AGCCAGTC,-0.129
5,AGACTGCC,0.0356
6,CACCACCG,-0.227
7,ACTAAGCT,0.223
8,AGTTTGAG,0.0378
9,AGTATGAA,0.113
10,TAGTTGGA,0.0156
11,TCGGCTAA,0.0525
12,AGACGGTA,-0.0335
13,AGAATGAA,0.0669
14,ACTCGAGT,0.311
15,CACCCAGC,-0.217
16,GCTCAGAC,-0.0381
17,AACCCGTT,-0.188
18,AATTGGGG,-0.0465
19,AGGCAGCC,-0.126
20,AAAACGGG,0.151
21,CGCCTCCC,-0.228
22,GAAGCTCA,-0.0369
23,ATCCACCA,0.0363
24,CAAGAGCA,-0.251
25,CCACGCAA,0.103

row,Sequence,PBM E-score
1,CTTGCTTA,0.107
2,ACGCGCAC,0.134
3,GAAGAGCA,-0.27
4,AACACATA,0.153
5,GTGCCTGA,-0.16
6,TCAACAAA,0.101
7,TACACCGA,-0.0418
8,AACCCGGT,-0.114
9,ATATGCCA,0.0827
10,GAAAAGGC,-0.113
11,AAACGATG,0.0272
12,ATATGGGC,0.0487
13,TAGCTGCA,-0.0732
14,ACAACGGT,-0.0127
15,ACACGGTA,0.039
16,TACAGATA,0.187
17,AAAGAGAT,-0.0632
18,AATCCTGC,0.0951
19,CCACCGAC,-0.112
20,GGTCTCCA,-0.0556
21,GAGTCTTA,-0.144
22,CCTTGACG,-0.107
23,AATTACGA,0.148
24,AGAGCGTG,-0.0848
25,CCATGACC,-0.225

row,Sequence,PBM E-score
1,AGCCGCGC,0.189
2,CCTTCCAG,-0.131
3,GGCCCGCA,-0.108
4,AGATGCCA,-0.163
5,AATGAAGA,0.0403
6,AGGTGGCC,-0.237
7,CACAAGGG,-0.2
8,ACACAGGT,-0.0976
9,ATAAGTAG,-0.0551
10,AGTGGGAC,-0.217
11,ATGCGAAA,0.215
12,CTTATCTA,0.226
13,ACTCAGGG,-0.0494
14,CGAGCGCG,0.195
15,GGACACAC,0.0335
16,CACTAGGG,-0.236
17,AGTACAAC,-0.129
18,CAATGCGG,0.0983
19,AAGTATAG,-0.0893
20,CCTAGTTC,-0.101
21,AATCGACA,0.304
22,ATTGCGAG,-0.0163
23,TATTTTCA,0.187
24,ACTCGTCG,-0.126
25,TCTGGGAA,0.0282

# Four entries drawn at random from those above, as already listed:
row,Sequence,PBM E-score
22,CCTTGACG,-0.107
4,AGCCAGTC,-0.129
10,AGTGGGAC,-0.217
4,AACACATA,0.153

# (further entries)

row,Sequence,PBM E-score
1,AGCTACCT,0.0613
2,GTTCTAGA,0.166
3,CTGCTCCA,-0.00118
4,AGCTTTTG,-0.0584
5,TCGTCGAA,0.0954
6,CACACCAA,0.117
7,GCCACCAA,0.0659
8,ATGTCATA,0.188
9,GGAGACCC,-0.207
10,GCATGACA,0.0476
11,CTTCGGCC,0.00251
12,ATAGACAT,-0.0972
13,AACCAAAT,0.0908
14,CTGCGTTA,0.004
15,GATTGCCA,-0.0239
16,AGTCTTCA,-0.0242
17,AGTAGGGG,-0.192
18,AAAGTTGT,0.172
19,AACGAGGC,-0.101
20,ATTATGAG,-0.00228
21,ATCCACAG,-0.0132
22,ATTAGACG,0.0681
23,ATTGAATA,0.281
24,CGAACGGC,0.0897
25,GGCTGTGA,-0.157

row,Sequence,PBM E-score
1,GAGCAACC,0.00873
2,GACGTCCC,-0.00551
3,AGAACATG,-0.054
4,CCAACGGG,-0.192
5,CGGTATCA,0.0366
6,GCCCTTCA,-0.192
7,TGCTTAAA,0.108
8,CATGTATC,-0.0673
9,AGGTCGGA,-0.00641
10,AGCGTAAT,0.0476
11,TAAACCAA,-0.00347
12,ATTTACTC,0.174
13,AGGATGTG,-0.0171
14,ACGGGCCG,-0.124
15,TCCAGTCA,-0.124
16,GATTTAGC,0.0176
17,CGGCTGCC,-0.0978
18,AATTCAAC,0.121
19,CGATGGAC,0.132
20,ATATTTGG,0.146
21,CTCCGGAA,0.00101
22,GACTACGC,-0.141
23,ACTATCCG,0.204
24,TCTTTCCA,-0.116
25,CCAGCCCG,-0.102

# For convenience, some entries already given.
row,Sequence,PBM E-score
12,ATTTACTC,0.174
13,AGGATGTG,-0.0171

# (continued)

row,Sequence,PBM E-score
1,CCTACAGG,-0.239
2,ATAACAAG,0.205
3,AAAGGTAA,-0.00154
4,AAAAGTTA,0.0315
5,ACTTTCGA,0.0684
6,GCGTACGC,0.0822
7,GGCAGTGA,-0.103
8,CAAAAGAG,-0.0845
9,AATCGGCA,0.173
10,CTCACTGA,-0.0364
11,CACCGGCC,-0.209
12,GGGCAGAC,-0.263
13,ACTCAGGA,-0.0464
14,GCCGCGCA,0.027
15,AAGATCGG,-0.207
16,GCGGTAAC,0.162
17,AAAACGTG,0.099
18,AACGAAGA,0.115
19,GGCCGAAA,0.171
20,CTCCTTGC,-0.141
21,AGAATGGG,-0.171
22,CCTATGGC,0.0419
23,AAACGGTC,0.0328
24,ATGGAACA,0.0806
25,AGGGAAAC,-0.158

row,Sequence,PBM E-score
1,TATGATCA,0.212
2,AGAGGTAA,0.0108
3,GATCCGAA,0.121
4,CCCTTAGC,-0.097
5,CGTTAAAC,0.148
6,CACTAAAA,0.19
7,GGAAAAGA,-0.191
8,ATTACGGA,0.183
9,AGGATCTA,-0.266
10,GATGTAAA,0.13
11,TCGTAACA,0.149
12,AATCCCGT,0.126
13,GGCCGCAC,-0.144
14,GACGTCAA,0.00094
15,ACGCGTCT,0.101
16,AGTGCCCG,-0.0933
17,CTGCGCTC,-0.191
18,GCAAGTGC,-0.205
19,AACCCTAA,-0.0165
20,ATAGAAGG,-0.198
21,AGCCCCTG,-0.451
22,ATGATGTG,-0.0446
